No constants are given. Whether binding was seen depends on the method and setting. In cells and extracts the contact can be indirect. Some binding calls cover weakened binding; strength is not graded here.
How the values were obtained:
[1] = molecular target: T1, GR10, synthetic poly-glycine-arginine 10-mer dipeptide repeat protein with C-terminal lysine and cysteine (human); experiment: co-sedimentation; 100 µM DPR 10-mers added to 2.5 mg/ml HEK lysate in transport buffer with energy, 1 hr; aggregates pelleted, rinsed; equal volumes of supernatant and pellet analysed by immunoblot; only the target purified
T1 sequence (peptide): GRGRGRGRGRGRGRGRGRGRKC

Sequences of proteins named here, by UniProt entry; tags and fusion partners are left off. Residues count along the entry.
UniProt O00571: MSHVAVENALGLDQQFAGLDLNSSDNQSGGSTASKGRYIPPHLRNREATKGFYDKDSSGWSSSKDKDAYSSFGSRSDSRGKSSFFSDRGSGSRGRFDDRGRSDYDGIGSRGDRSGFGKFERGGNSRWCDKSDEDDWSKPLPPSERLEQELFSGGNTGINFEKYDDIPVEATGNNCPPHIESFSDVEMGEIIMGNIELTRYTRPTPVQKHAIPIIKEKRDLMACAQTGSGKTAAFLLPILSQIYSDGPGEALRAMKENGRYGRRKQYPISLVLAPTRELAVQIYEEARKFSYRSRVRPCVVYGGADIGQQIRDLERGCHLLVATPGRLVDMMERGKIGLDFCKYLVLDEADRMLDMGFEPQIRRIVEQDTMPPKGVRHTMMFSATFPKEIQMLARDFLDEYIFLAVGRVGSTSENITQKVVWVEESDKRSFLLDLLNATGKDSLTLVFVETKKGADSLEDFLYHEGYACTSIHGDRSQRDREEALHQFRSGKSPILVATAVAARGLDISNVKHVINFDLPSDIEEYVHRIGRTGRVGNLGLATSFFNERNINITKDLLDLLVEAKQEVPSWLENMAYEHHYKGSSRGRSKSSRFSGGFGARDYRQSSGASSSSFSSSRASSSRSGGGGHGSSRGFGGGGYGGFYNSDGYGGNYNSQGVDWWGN
UniProt Q92973: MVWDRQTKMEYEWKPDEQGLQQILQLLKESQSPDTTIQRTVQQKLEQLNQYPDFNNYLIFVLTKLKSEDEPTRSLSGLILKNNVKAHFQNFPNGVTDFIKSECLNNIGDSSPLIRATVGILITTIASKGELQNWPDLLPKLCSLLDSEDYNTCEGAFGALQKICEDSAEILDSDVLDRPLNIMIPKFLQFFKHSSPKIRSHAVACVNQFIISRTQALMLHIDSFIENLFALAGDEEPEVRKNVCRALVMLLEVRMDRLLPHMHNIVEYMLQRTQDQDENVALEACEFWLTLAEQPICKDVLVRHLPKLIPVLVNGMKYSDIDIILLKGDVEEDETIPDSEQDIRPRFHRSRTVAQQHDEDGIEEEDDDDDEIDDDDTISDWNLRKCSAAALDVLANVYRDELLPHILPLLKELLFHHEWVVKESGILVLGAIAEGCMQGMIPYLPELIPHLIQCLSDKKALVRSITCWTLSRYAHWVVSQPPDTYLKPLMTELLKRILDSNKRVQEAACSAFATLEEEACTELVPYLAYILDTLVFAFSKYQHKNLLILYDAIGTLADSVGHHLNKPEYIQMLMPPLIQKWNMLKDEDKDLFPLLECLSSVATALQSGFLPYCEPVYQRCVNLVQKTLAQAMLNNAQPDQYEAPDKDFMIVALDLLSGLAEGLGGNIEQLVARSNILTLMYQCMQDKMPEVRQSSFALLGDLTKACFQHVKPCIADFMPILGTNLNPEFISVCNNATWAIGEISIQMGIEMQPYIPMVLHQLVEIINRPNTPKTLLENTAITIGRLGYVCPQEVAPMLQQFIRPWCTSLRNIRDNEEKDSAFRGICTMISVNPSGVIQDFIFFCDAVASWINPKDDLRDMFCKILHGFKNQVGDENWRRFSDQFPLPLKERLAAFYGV
UniProt P37198: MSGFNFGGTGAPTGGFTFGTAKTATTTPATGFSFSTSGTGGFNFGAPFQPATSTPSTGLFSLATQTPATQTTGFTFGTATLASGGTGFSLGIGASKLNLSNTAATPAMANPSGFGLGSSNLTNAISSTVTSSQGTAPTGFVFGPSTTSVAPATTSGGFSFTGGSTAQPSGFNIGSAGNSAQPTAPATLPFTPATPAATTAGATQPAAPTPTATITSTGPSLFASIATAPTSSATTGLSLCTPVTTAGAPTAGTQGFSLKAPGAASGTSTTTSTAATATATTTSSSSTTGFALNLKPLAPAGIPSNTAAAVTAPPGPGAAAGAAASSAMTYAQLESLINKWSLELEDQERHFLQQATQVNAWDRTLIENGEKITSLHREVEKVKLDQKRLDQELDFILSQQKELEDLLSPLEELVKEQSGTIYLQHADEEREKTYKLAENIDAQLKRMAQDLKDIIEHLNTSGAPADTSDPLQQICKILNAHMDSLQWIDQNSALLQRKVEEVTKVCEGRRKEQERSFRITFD
UniProt P18754: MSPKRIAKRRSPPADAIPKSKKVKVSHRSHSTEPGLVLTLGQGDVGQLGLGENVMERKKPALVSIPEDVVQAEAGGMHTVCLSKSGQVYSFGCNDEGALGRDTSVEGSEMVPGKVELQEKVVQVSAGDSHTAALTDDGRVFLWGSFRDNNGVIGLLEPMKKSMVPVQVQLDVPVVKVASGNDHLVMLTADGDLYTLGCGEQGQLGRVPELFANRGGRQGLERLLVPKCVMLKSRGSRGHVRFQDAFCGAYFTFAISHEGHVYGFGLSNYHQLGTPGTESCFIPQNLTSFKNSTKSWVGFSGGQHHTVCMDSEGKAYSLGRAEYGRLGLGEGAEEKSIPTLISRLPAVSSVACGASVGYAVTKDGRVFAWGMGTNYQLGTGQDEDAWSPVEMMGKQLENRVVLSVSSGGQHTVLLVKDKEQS
UniProt Q13148: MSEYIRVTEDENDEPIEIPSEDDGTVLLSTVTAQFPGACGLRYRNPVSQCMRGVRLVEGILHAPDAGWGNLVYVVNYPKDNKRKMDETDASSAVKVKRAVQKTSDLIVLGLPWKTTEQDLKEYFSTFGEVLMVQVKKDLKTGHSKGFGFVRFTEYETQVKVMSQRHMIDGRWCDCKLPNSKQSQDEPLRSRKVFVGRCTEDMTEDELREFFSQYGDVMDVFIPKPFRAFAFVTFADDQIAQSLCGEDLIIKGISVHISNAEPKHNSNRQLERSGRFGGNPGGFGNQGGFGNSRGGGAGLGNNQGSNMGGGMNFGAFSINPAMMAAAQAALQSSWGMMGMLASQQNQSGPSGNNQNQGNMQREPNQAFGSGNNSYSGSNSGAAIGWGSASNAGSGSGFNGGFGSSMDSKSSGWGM
UniProt Q14974: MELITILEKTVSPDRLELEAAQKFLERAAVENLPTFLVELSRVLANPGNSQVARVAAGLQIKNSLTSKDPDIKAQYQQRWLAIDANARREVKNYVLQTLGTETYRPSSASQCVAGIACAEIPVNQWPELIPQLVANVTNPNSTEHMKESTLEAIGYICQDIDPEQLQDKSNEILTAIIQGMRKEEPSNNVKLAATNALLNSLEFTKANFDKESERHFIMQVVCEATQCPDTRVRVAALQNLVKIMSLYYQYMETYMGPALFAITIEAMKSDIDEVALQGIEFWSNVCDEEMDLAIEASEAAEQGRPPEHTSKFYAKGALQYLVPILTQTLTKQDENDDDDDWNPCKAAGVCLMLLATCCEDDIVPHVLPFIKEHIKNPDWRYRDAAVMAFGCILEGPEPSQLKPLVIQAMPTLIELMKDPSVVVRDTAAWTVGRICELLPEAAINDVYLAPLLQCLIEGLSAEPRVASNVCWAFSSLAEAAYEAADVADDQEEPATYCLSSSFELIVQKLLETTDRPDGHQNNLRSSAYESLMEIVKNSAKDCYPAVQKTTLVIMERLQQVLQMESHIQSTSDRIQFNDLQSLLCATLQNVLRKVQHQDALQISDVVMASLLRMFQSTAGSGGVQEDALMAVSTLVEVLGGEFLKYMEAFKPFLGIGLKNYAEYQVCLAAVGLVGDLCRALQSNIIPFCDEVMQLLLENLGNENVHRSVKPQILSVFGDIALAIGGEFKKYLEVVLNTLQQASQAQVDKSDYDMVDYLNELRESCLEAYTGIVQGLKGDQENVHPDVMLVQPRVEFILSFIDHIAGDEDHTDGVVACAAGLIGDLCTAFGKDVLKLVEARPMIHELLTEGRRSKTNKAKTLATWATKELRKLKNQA
UniProt P52948, residues 1-880: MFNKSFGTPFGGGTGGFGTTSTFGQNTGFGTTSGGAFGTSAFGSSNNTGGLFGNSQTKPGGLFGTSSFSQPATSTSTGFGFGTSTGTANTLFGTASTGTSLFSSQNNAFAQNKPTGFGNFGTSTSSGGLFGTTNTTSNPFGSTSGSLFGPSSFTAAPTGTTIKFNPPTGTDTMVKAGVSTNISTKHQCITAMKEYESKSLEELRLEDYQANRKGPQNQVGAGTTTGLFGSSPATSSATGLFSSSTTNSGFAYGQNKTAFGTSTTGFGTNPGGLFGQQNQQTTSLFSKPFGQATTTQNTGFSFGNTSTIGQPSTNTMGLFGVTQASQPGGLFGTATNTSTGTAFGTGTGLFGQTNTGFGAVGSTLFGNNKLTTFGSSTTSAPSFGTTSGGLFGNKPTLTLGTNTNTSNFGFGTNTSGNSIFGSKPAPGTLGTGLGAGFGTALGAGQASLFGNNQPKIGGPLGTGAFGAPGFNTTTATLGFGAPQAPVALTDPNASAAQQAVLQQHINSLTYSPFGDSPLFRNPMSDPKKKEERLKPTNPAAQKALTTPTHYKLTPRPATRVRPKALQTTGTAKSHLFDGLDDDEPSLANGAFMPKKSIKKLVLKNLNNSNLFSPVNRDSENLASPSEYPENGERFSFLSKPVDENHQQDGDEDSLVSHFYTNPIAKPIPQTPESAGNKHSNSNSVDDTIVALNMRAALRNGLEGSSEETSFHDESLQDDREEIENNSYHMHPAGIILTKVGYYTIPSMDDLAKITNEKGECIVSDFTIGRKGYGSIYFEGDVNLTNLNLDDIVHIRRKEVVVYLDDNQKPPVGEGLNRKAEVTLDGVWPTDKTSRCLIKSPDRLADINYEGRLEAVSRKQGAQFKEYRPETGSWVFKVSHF
UniProt P35637: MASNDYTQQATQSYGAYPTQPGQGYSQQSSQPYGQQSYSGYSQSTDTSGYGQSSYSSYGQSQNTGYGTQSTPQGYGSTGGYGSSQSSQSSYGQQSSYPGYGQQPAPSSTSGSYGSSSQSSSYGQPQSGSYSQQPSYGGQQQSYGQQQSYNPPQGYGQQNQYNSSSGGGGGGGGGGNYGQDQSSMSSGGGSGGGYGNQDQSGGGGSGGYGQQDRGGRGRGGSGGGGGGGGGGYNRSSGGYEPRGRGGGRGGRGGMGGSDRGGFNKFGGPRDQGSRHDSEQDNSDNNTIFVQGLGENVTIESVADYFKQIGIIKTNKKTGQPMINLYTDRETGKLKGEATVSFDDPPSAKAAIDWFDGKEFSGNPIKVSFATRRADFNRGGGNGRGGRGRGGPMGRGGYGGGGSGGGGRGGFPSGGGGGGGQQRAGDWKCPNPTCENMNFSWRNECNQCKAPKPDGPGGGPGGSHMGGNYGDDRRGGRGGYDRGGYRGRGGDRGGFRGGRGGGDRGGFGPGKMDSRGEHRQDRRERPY

[2] = molecular target: T2, PR10, synthetic poly-proline-arginine 10-mer dipeptide repeat protein with C-terminal lysine and cysteine (human); experiment: as above
T2 sequence (peptide): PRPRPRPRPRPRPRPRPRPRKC

[3] = molecular target: T1, GR10, synthetic poly-glycine-arginine 10-mer dipeptide repeat protein with C-terminal lysine and cysteine (human); experiment: co-sedimentation; 50 µM GR10 or 25 µM PR10 added to 5 mg/ml HEK whole cell lysate (TRB with energy mix), 60 min at 37°C; aggregates pelleted at 16,000 g for 10 min, washed 2x; pellet analysed by LC/MS/MS; only the target purified
[4] = molecular target: T2, PR10, synthetic poly-proline-arginine 10-mer dipeptide repeat protein with C-terminal lysine and cysteine (human); experiment: as above

| Substance | binding [1] | binding [2] | binding [3] | binding [4] |
| --- | --- | --- | --- | --- |
| ATP-dependent RNA helicase DDX3X of HEK cell lysate (from UniProt O00571 1-662) | binds | binds | – | – |
| transportin-1 of HEK cell lysate (from UniProt Q92973 1-898) | binds | binds | – | – |
| Nup62 of HEK cell lysate (from UniProt P37198 1-522) | binds | binds | – | – |
| RCC1 of HEK cell lysate (from UniProt P18754 1-421) | no binding | no binding | – | – |

Results, then the substance that gave them:

| binding [1] | binding [2] | binding [3] | binding [4] | Substance |
| --- | --- | --- | --- | --- |
| binds | binds | binds | binds | TDP-43 of HEK cell lysate (from UniProt Q13148 1-414) |
| binds | binds | – | – | importin β of HEK cell lysate (from UniProt Q14974 1-876) |
| binds | binds | – | – | Nup98 of HEK cell lysate (from UniProt P52948 1-880) |
| binds | binds | binds | binds | FUS of HEK cell lysate (from UniProt P35637 1-526) |

— PMC7051184, “C9orf72 arginine-rich dipeptide repeat proteins disrupt karyopherin-mediated nuclear import” (eLife, 2020)
